1 molecule from US20190256846A1 (AGENCY FOR SCIENCE TECHNOLOGY AND RESEARCH, published 2019) can be followed below.

These are yes or no findings as the source states them, for the method shown. Binding seen in cells or lysates may run through a third protein. Some results given as binding are weak or reduced against the parent protein; the word gives no strength.

The target in the experiment is ErbB2 (overexpressed in cells, lysate) (UniProt P04626). The experiment in a line: GST pull-down from lysates of cells overexpressing ErbB2, Western blot with anti-ErbB2. For orientation: In western blotting, separated proteins are transferred to a membrane and probed.

B1: GST fusion protein carrying the three PDZ domains of Tjp1 (GST-Tjp1 PDZ1-3) (other, human, UniProt Q07157 1-503, looked up)
chain: MSARAAAAKSTAMEETAIWEQHTVTLHRAPGFGFGIAISGGRDNPHFQSGETSIVISDVLKGGPAEGQLQENDRVAMVNGVSMDNVEHAFAVQQLRKSGKNAKITIRRKKKVQIPVSRPDPEPVSDNEEDSYDEEIHDPRSGRSGVVNRRSEKIWPRDRSASRERSLSPRSDRRSVASSQPAKPTKVTLVKSRKNEEYGLRLASHIFVKEISQDSLAARDGNIQEGDVVLKINGTVTENMSLTDAKTLIERSKGKLKMVVQRDERATLLNVPDLSDSIHSANASERDDISEIQSLASDHSGRSHDRPPRRSRSRSPDQRSEPSDHSRHSPQQPSNGSLRSRDEERISKPGAVSTPVKHADDHTPKTVEEVTVERNEKQTPSLPEPKPVYAQVGQPDVDLPVSPSDGVLPNSTHEDGILRPSMKLVKFRKGDSVGLRLAGGNDVGIFVAGVLEDSPAAKEGLEEGDQILRVNNVDFTNIIREEAVLFLLDLPKGEEVTILAQKK
notes: domain: PDZ 1-3 domains; also called GST ZO-1PDZ1-3 domain fusion protein; ZO-1 (Tjp1) PDZ domains; not shown: glutathione S-transferase (GST) tag encoded by the pGEX 4T-1 vector
Turning to B1, the binding result was “binds”.
